# Test results from PubChem BioAssay AID1347076 (National Center for Advancing Translational Sciences (NCATS), 2019).
# The campaign covered roughly 400,000 compounds. About 13,000 (3.2%) were called active. The inconclusive results got no clear call from the source; some entries with a clear call stand among them for comparison. Calls come from the whole dose curve; as a rule, active = well fitted cell-killing curve with a large enough effect; inconclusive = small, poorly fitted or top-dose-only effect, or effect the other way; inactive = flat fitted curve, though single readings scatter. Potencies of inconclusive entries are doubtful fits and often do not repeat.
# Test: qHTS assay for MDR1-selective chemotherapeutics: Primary screen using the drug-selected MDR subline cells KB-V1; note: nearly all actives have a fitted effect of over 60% in size
# Conditions: KB-V1 MDR cells viability, CellTiter-Glo, 72 h; activity change, negative = cytotoxicity: at 46.1 µM (top of the series)
# Procedure, shortened: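 Readout: CellTiter-Glo luminescence, 10 min after addition. Cells: KB-V1 MDR subline, 72 h at 37 degrees C with compound. Analysis: corrected, normalized data fitted to concentration-effect curves.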
# % is set by controls: 0 for no effect and ±100 for the full control effect; potency is the fitted concentration of half-maximal effect.
Structure (SMILES),Potency,"activity change, negative = cytotoxicity"
Cc1ccc(-c2csnn2)cc1,"inconclusive: 20.6 µM [rising, single point]",–
O=C(Cc1cccc2ccccc12)Nc1ccccc1C(=O)O,"inconclusive: 23.1 µM [cytotoxic, single point]",–
CC(C)NC1(C#N)CCN(Cc2ccccc2)CC1,–,inactive: 27.7%
Nc1c(C(=O)N2CCCCCC2)oc2ccccc12,"inconclusive: 2.31 µM [rising, full curve, poor fit]",–
Cc1cccc(C)c1NC(=S)N1CCOCC1,"inconclusive: 23.1 µM [rising, single point]",–
Cc1cc(Br)cn2c(Cc3cccc(F)c3)c(-c3ccc(C#N)cc3)nc12,–,inactive: -29%
Cc1ccc(N2C(=O)N(Cc3ccccc3C)c3ccccc3S2(=O)=O)cc1,"inconclusive: 13 µM [cytotoxic, single point]",–
CC(C)C[C@H]1CN([C@@H](Cc2ccccc2)CN2CCCC2CN2C(=S)NC[C@@H]2Cc2ccccc2)C(=S)N1CC1CCCCC1 (stereo not given in full),"inconclusive: 5.8 µM [cytotoxic, full curve, poor fit]",–
O=C(COc1ccc2c(c1)CCC2)N1CCN(c2ccc(F)cc2)CC1,"inconclusive: 23.1 µM [cytotoxic, partial curve, poor fit]",–
CCN(CC)c1ccc(/C=N/n2nnnc2N)c(O)c1,"inconclusive: 20.6 µM [cytotoxic, single point]",–
COc1ccc(CNc2cc(C)nc3ncnn23)c(OC)c1,–,inactive: 0%
O=C(O)c1cc([N+](=O)[O-])ccc1C(=O)Nc1ccccc1,–,inactive: -1.58%
COc1ccc(CC(=O)Nc2ccccc2N2CCCC2)cc1OC,"inconclusive: 29.1 µM [cytotoxic, single point]",–
CCOC(=O)c1ccccc1NC(=O)CSc1nnnn1C,"inconclusive: 20.6 µM [cytotoxic, partial curve, poor fit]",–
O=C(Nc1ccon1)C12CC3CC(C1)CC(n1cnc([N+](=O)[O-])n1)(C3)C2,"inconclusive: 18.4 µM [rising, partial curve]",–
O=C(COc1ccc(S(=O)(=O)NC2CCCCC2)cc1)N1CCN(c2ccc(F)cc2)CC1,"inconclusive: 32.6 µM [cytotoxic, single point]",–
Cc1ccc(S(=O)(=O)c2c(Nc3cccc(Cl)c3)sc(C(=O)c3ccc4c(c3)OCO4)c2N)cc1,"inconclusive: 7.31 µM [cytotoxic, partial curve]",–
COc1ccc([N+](=O)[O-])cc1/C=N/Nc1nn[nH]n1,–,inactive: -11.2%
CCC(C)C(=O)OC1CCC=C2C=CC(C)C(CCC3CC(O)CC(=O)O3)C21 (stereo not given),active: 18.4 µM,–
COc1ccc(CNC(=O)CN(c2cccc([N+](=O)[O-])c2)S(C)(=O)=O)cc1,"inconclusive: 18.4 µM [rising, partial curve, poor fit]",–
Cc1cccc(/C=N/NC(=O)c2cc(C)nc3ccccc23)n1,"inconclusive: 18.4 µM [rising, partial curve, poor fit]",–
Cc1ccc(C(=O)c2oc3ccccc3c2NC(=O)Cc2coc3c(C)c(C)ccc23)cc1,"inconclusive: 29.1 µM [rising, single point]",–
O=C(c1ccncc1)N1CCCC(N2CCN(c3ccc(F)cc3)CC2)C1 (stereo not given),"inconclusive: 16.4 µM [cytotoxic, single point]",–
Cc1ccc(-n2nnnc2-c2cnc3ccc(Cl)cc3c2-c2ccccc2)cc1,"inconclusive: 5.17 µM [cytotoxic, full curve]",–

Structure (SMILES),Potency,"activity change, negative = cytotoxicity"
O=C1N(Cc2ccc(F)cc2Cl)c2ccccc2C12OCCCO2,active: 18.4 µM,–
O=C(CCC(=O)N1CCOc2ccc(Cl)cc21)NCCCN1CCC(Cc2ccccc2)CC1,–,inactive: 10.1%
CCOC(=O)C1=CCN(S(=O)(=O)c2ccc(C)cc2)C1c1cccc(Cl)c1 (stereo not given),"inconclusive: 29.1 µM [cytotoxic, partial curve, poor fit]",–
Cc1cccc(/C=C2\Sc3ccc(C(=O)N4CCC(C)CC4)cc3N(C)C2=O)c1,–,inactive: -22.3%
CCOC(=O)C(N)CSC1CC(=O)N(CCc2ccccc2)C1=O (stereo not given),–,inactive: 5.96%
CCCN(CCC)S(=O)(=O)c1ccc(C(=O)NNC(=O)c2cc(OC)c(OC)c(OC)c2)cc1,"inconclusive: 10.3 µM [rising, partial curve]",–
O=C(Nc1cccc(NC(=O)c2ccco2)c1)c1ccccc1,–,inactive: -13.4%
CC(=O)NC(CC(=O)N(C)Cc1cccc(Cl)c1Cl)c1ccccc1 (stereo not given),"inconclusive: 16.4 µM [cytotoxic, single point]",–
Cc1cccc(NC(=O)CN(C)S(=O)(=O)c2ccc3c(c2)c(=O)n(C)c(=O)n3C)c1,–,inactive: -1.97%
Cc1ccc(NC(=O)CNc2cccc(S(=O)(=O)N3CCCC3)c2)cc1F,–,inactive: -10.7%
O=C(COC(=O)COc1ccc2ccccc2c1)NCC(F)(F)F,"inconclusive: 14.6 µM [rising, partial curve, poor fit]",–
O=C(NCc1ccco1)c1ccc(S(=O)(=O)c2cccc(S(=O)(=O)N3CCOCC3)c2)cc1,"inconclusive: 18.4 µM [cytotoxic, single point]",–
COc1ccccc1C(=O)Nc1ccc(-c2nc3ccccc3s2)c(C)c1,"inconclusive: 29.1 µM [rising, single point]",–
C[N+](C)(CCOc1ccccc1)Cc1ccccc1,–,inconclusive: 11.8%
COc1cc(/C=C/C(=O)c2ccc3c(c2)OCCO3)cc(Br)c1OCC(=O)N(C)C,active: 2.31 µM,–
O=C(c1ccc(F)cc1F)N1CCCC(c2nc(-c3cccs3)no2)C1 (stereo not given),"inconclusive: 18.4 µM [cytotoxic, single point]",–
O=C(Nc1cccnc1)c1noc2c1CCCCC2,active: 23.1 µM,–
O=c1cc(COc2ncnc3c(Cl)cc(Cl)cc23)nc2sccn12,"inconclusive: 29.1 µM [rising, single point]",–
CCCCCCN1C[C@@H](n2cc(C3CC3)nn2)[C@H](O)C[C@@H]1c1ccc(C)cc1,–,inactive: -53.5%
COC(=O)c1sccc1NC(=O)Nc1ccc(OC)cc1OC,"inconclusive: 29.1 µM [rising, single point]",–
COc1cc(C(=O)Nc2nnc(C3CC3)s2)ccc1OCc1c(C)noc1C,"inconclusive: 5.17 µM [cytotoxic, partial curve, poor fit]",–
COc1ccccc1Nc1nc(N)nc(CSC(=S)N2CCC(C)CC2)n1,"inconclusive: 11.6 µM [cytotoxic, partial curve]",–
Cc1ccc(S(=O)(=O)n2nc(-c3ccc(Cl)cc3)nc2NCc2ccccc2)cc1,"inconclusive: 23.1 µM [cytotoxic, single point]",–
Brc1cccc(CNc2nc3ccccc3n2CCN2CCCCC2)c1,–,inactive: -2.59%

# Structural class, the compounds so far containing a COOH group
Structure (SMILES),Potency,"activity change, negative = cytotoxicity"
O=C(Cc1cccc2ccccc12)Nc1ccccc1C(=O)O,"inconclusive: 23.1 µM [cytotoxic, single point]",–
O=C(O)c1cc([N+](=O)[O-])ccc1C(=O)Nc1ccccc1,–,inactive: -1.58%

# Additional entries:

Structure (SMILES),Potency,"activity change, negative = cytotoxicity"
Cc1cc(C(=O)OC(C)C(=O)N2CCc3ccccc32)ccc1[N+](=O)[O-] (stereo not given),"inconclusive: 20.6 µM [cytotoxic, single point]",–
CCCSc1oc(-c2ccco2)nc1S(=O)(=O)c1ccc(Br)cc1,"inconclusive: 11.6 µM [cytotoxic, partial curve]",–
O=C(O)c1ccccc1-c1ccc([N+](=O)[O-])cc1Cl,"inconclusive: 18.4 µM [rising, partial curve, poor fit]",–
CN(C)S(=O)(=O)c1ccc(-c2csc(N/N=C/c3ccco3)n2)cc1,"inconclusive: 8.2 µM [cytotoxic, partial curve, poor fit]",–
O=C1CSc2ccc(S(=O)(=O)NCc3ccc(Cl)cc3)cc2N1,–,inactive: 0%
CC(C)CNc1nc(S(=O)(=O)c2ccccc2)c(Cl)s1,"inconclusive: 11.6 µM [cytotoxic, partial curve]",–
CCc1c(C)nc(SCC(=O)NNC(=O)c2ccco2)[nH]c1=O,"inconclusive: 29.1 µM [rising, single point]",–
Cc1ccccc1NC(=O)c1nnn(-c2ccc3c(c2)OCCO3)c1N,–,inactive: -31.5%
Cc1ccccc1CCNC(=O)c1cc(C2CC2)nc2c1cnn2C(C)C,"inconclusive: 23.1 µM [cytotoxic, single point]",–
CCC(C)Oc1cc(-c2ccnc(Nc3cccc(Cl)c3)n2)ccn1 (stereo not given),–,inconclusive: -3.58%
COc1cccc(CNC(=O)CSc2ccc(-c3cccs3)nn2)c1,"inconclusive: 25.9 µM [cytotoxic, single point]",–
COC(=O)c1cc(-c2ccc(C)o2)nc2ccccc12,"inconclusive: 18.4 µM [cytotoxic, single point]",–
CC1=C(c2ccc(C(C)C)cc2)S(=O)(=O)N=C1N1CCC(C(=O)NCc2ccccc2)CC1,"inconclusive: 32.6 µM [rising, partial curve, poor fit]",–
CC(=O)N1C[C@H]2CON(C)[C@H]2C[C@H]1c1ccccc1,–,inactive: 0%
COc1ccc(C2C(C)C(=O)C(C)C(c3ccc(OC)cc3)N2N=O)cc1 (stereo not given),–,inactive: -20.9%
CCn1c(C(=O)NCc2ccccc2OC)cc2sccc21,–,inactive: 13.7%
O=C1CC(/C=C/c2ccccc2)(C(=O)NC2CCCC2)N1c1ccc(S(=O)(=O)N2CCCC2)cc1 (stereo not given),active: 2.91 µM,–
COc1ccc(-c2nc(CSCC(=O)NC3CCCc4ccccc43)c(C)o2)cc1 (stereo not given),"inconclusive: 23.1 µM [cytotoxic, partial curve]",–
CN1CCN(S(=O)(=O)c2ccc(NC(=O)c3ccc(Br)o3)cc2)CC1,active: 9.2 µM,–
CCOc1ccccc1NC(=O)CN1C(=O)COc2ccc(C)cc21,"inconclusive: 9.2 µM [cytotoxic, single point]",–
COC(=O)c1cc(CSc2nc3ccccc3c(=O)n2C)oc1C,"inconclusive: 5.17 µM [cytotoxic, full curve]",–
CCN1C(=O)[C@H]2[C@@H](c3ccc(-c4cccc(Cl)c4)c(OC)c3)N[C@@](C)(C(=O)OC)[C@H]2C1=O,–,inactive: -5.08%
